The source of these data is publication PMC11046779.

Chains of the proteins cited; added tags and fusions are not shown.
UniProt Q9NZZ3: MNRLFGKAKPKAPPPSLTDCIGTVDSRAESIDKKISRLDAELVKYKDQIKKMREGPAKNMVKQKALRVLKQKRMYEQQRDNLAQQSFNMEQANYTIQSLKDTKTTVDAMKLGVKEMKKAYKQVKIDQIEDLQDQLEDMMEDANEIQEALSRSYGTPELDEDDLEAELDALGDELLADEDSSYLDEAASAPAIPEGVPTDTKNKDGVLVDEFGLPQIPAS
UniProt P25963: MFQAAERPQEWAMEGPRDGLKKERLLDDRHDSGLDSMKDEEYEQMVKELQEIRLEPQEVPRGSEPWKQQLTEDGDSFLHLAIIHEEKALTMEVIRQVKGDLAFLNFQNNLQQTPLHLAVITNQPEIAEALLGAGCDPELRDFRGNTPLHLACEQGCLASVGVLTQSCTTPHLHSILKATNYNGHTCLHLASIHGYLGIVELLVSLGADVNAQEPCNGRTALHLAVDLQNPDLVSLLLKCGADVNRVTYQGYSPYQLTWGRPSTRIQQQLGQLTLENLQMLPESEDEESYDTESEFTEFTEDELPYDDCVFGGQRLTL

This assay concerns the target Charged multivesicular body protein 5 (human (endogenous in human chondrocytes)) (UniProt Q9NZZ3). Nature of the assay: co-IP; lysates of human chondrocytes treated with IL-1β; supernatants incubated with rabbit anti-CHMP5, anti-IκBα or anti-USP15 antibodies at 4 °C overnight, then protein A agarose beads; western blot. (A western blot detects proteins with antibodies after separation by electrophoresis.)

Results are given in words; binding and its absence hold for the method and conditions named. In cells and extracts the contact can be indirect. Some entries that bind do so weakly or less than the wild type.

For the molecule “NF-κB inhibitor alpha (from UniProt P25963 1-317)”, the binding result is on record as “binds”.

B1: Ubiquitin specific peptidase 15 (enzyme, UniProt Q9Y4E8 1-981)
chain: MAEGGAADLDTQRSDIATLLKTSLRKGDTWYLVDSRWFKQWKKYVGFDSWDKYQMGDQNVYPGPIDNSGLLKDGDAQSLKEHLIDELDYILLPTEGWNKLVSWYTLMEGQEPIARKVVEQGMFVKHCKVEVYLTELKLCENGNMNNVVTRRFSKADTIDTIEKEIRKIFSIPDEKETRLWNKYMSNTFEPLNKPDSTIQDAGLYQGQVLVIEQKNEDGTWPRGPSTPKSPGASNFSTLPKISPSSLSNNYNNMNNRNVKNSNYCLPSYTAYKNYDYSEPGRNNEQPGLCGLSNLGNTCFMNSAIQCLSNTPPLTEYFLNDKYQEELNFDNPLGMRGEIAKSYAELIKQMWSGKFSYVTPRAFKTQVGRFAPQFSGYQQQDCQELLAFLLDGLHEDLNRIRKKPYIQLKDADGRPDKVVAEEAWENHLKRNDSIIVDIFHGLFKSTLVCPECAKISVTFDPFCYLTLPLPMKKERTLEVYLVRMDPLTKPMQYKVVVPKIGNILDLCTALSALSGIPADKMIVTDIYNHRFHRIFAMDENLSSIMERDDIYVFEININRTEDTEHVIIPVCLREKFRHSSYTHHTGSSLFGQPFLMAVPRNNTEDKLYNLLLLRMCRYVKISTETEETEGSLHCCKDQNINGNGPNGIHEEGSPSEMETDEPDDESSQDQELPSENENSQSEDSVGGDNDSENGLCTEDTCKGQLTGHKKRLFTFQFNNLGNTDINYIKDDTRHIRFDDRQLRLDERSFLALDWDPDLKKRYFDENAAEDFEKHESVEYKPPKKPFVKLKDCIELFTTKEKLGAEDPWYCPNCKEHQQATKKLDLWSLPPVLVVHLKRFSYSRYMRDKLDTLVDFPINDLDMSEFLINPNAGPCRYNLIAVSNHYGGMGGGHYTAFAKNKDDGKWYYFDDSSVSTASEDQIVSKAAYVLFYQRQDTFSGTGFFPLDRETKGASAATGIPLESDEDSNDNDNDIENENCMHTN
Turning to B1, the binding entry is reported as “binds”.
